# Test results published in the supplement of paper PMC6411743.
# Sequences of proteins named here, by UniProt entry; tags and fusion partners are left off. A change or cut given only in a name is not applied to a line headed by its entry.
# UniProt P53667: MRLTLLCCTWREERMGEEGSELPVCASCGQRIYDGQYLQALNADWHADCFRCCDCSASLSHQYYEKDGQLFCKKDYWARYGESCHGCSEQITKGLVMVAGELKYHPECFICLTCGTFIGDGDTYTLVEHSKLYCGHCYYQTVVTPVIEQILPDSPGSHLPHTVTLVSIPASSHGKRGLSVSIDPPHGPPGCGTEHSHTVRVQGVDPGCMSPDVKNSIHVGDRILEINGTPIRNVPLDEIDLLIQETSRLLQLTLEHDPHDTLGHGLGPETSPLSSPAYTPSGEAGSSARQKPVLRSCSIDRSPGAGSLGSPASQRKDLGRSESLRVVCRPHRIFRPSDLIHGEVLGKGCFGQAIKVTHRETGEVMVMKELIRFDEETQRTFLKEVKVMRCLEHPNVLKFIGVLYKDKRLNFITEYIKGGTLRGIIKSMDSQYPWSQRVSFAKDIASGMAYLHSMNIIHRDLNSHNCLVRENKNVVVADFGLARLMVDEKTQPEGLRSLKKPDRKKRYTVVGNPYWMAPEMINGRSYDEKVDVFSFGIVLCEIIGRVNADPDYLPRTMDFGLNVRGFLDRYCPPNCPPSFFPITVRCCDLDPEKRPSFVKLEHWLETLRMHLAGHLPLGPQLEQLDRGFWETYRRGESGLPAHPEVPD
# UniProt P60660, whole entry: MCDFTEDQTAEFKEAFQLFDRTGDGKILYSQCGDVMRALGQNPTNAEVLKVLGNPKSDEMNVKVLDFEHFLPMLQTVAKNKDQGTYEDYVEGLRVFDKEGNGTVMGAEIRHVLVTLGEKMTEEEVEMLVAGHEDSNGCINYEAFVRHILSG
# UniProt Q69YH5: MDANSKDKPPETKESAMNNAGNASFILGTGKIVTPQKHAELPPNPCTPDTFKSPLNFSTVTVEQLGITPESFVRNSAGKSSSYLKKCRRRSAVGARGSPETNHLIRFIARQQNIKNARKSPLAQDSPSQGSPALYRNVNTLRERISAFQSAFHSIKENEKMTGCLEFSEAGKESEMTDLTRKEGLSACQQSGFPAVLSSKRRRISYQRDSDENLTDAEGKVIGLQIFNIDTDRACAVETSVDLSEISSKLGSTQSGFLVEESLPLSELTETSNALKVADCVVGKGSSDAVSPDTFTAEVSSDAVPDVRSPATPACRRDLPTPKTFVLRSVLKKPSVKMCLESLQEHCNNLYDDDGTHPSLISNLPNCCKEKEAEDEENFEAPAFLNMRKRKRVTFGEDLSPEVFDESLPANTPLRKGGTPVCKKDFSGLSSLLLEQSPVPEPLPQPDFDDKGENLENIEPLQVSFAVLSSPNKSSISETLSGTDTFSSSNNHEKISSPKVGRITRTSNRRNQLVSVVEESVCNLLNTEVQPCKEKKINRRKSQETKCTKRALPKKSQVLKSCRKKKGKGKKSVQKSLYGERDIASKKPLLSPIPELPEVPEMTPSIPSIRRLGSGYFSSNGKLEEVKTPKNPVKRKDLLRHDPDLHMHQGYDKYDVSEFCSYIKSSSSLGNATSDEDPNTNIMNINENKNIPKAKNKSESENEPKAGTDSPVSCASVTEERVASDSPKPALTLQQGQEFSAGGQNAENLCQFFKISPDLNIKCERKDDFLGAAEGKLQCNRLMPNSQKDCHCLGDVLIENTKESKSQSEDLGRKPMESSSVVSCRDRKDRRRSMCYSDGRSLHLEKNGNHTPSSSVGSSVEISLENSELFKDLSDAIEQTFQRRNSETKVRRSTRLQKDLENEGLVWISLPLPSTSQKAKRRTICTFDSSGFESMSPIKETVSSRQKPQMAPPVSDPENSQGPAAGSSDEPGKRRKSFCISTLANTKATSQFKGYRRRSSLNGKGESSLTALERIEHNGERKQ
# UniProt P78410: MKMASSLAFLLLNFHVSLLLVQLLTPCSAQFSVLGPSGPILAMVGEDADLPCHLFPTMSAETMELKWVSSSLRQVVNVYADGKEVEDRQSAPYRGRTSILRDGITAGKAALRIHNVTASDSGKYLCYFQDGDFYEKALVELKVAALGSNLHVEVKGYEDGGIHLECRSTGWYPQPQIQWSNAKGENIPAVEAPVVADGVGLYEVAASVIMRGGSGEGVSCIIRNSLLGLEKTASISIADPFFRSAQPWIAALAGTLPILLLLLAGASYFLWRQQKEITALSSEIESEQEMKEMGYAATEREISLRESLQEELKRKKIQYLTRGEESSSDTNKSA
# UniProt Q9HBH0: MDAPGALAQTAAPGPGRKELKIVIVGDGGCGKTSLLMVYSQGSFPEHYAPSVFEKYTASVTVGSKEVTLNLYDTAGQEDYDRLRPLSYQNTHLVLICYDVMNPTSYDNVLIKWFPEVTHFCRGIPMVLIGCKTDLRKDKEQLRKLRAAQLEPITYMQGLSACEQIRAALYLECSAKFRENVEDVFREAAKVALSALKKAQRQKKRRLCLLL
# UniProt Q53FT3: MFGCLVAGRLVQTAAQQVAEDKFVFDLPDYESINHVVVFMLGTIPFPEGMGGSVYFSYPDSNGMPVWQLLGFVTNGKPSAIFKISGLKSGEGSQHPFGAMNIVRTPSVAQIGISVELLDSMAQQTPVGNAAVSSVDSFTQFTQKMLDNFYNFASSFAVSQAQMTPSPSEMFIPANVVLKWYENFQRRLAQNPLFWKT
# UniProt Q9BVG9: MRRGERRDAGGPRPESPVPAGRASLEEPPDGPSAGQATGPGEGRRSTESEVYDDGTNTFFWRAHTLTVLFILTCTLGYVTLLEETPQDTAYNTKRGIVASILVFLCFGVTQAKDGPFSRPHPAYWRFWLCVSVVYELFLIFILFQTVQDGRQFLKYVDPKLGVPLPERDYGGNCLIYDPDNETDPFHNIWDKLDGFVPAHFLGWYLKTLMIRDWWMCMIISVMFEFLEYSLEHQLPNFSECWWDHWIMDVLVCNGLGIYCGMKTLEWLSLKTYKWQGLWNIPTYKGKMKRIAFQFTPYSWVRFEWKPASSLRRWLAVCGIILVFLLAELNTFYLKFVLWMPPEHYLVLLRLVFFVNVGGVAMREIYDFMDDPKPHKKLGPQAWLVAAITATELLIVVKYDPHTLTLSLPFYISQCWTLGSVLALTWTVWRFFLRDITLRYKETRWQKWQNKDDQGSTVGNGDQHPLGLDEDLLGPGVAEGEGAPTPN
# UniProt Q92844: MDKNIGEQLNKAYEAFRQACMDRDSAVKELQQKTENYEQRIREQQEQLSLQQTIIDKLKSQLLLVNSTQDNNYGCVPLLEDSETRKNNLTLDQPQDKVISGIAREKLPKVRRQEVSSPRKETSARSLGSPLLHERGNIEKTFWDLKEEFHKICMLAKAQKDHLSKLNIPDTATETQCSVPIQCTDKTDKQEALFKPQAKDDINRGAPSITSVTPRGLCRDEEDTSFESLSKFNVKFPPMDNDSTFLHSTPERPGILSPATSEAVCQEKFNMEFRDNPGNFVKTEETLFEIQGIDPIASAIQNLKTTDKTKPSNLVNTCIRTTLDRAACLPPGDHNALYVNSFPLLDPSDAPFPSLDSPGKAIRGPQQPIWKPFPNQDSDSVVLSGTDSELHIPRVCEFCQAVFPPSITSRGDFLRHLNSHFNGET
# UniProt Q9UH65: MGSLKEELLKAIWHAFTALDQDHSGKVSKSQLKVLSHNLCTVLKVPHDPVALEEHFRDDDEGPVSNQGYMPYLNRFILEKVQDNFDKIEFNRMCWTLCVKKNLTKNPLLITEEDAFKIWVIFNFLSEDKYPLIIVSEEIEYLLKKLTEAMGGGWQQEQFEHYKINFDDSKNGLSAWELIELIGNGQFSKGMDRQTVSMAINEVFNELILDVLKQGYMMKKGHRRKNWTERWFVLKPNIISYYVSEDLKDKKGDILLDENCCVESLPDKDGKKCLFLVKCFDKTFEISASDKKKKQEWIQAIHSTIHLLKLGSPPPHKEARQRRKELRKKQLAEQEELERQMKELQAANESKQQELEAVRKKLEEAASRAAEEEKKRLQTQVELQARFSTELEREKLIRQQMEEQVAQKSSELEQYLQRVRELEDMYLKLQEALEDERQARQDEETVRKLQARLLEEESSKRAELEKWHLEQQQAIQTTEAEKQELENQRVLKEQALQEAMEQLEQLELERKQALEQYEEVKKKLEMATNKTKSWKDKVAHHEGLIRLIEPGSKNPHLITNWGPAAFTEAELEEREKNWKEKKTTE
# UniProt Q9BUI4: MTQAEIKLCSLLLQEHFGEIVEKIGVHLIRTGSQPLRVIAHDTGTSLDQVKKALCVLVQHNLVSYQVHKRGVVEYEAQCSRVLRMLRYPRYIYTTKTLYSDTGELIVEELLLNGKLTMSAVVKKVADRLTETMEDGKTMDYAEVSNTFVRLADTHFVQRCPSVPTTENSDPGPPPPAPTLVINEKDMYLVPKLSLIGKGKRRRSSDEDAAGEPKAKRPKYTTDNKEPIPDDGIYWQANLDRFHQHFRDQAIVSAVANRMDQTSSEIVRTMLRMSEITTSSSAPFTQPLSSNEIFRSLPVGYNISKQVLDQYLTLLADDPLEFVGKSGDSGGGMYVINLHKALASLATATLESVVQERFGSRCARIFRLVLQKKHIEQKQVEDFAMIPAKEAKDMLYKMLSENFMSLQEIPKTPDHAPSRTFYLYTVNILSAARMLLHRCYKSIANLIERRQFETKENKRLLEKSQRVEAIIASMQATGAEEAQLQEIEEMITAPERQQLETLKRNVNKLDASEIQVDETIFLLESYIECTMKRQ
# UniProt Q16342: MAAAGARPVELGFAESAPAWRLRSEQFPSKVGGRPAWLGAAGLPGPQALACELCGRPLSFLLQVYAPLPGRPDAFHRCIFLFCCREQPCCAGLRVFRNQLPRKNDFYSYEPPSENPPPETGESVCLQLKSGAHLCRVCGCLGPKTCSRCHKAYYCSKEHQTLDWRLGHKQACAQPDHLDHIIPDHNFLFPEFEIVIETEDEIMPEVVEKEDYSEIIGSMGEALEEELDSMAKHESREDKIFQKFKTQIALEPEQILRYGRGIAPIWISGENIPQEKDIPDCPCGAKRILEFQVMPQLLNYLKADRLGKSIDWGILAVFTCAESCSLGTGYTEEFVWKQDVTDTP
# UniProt Q15262: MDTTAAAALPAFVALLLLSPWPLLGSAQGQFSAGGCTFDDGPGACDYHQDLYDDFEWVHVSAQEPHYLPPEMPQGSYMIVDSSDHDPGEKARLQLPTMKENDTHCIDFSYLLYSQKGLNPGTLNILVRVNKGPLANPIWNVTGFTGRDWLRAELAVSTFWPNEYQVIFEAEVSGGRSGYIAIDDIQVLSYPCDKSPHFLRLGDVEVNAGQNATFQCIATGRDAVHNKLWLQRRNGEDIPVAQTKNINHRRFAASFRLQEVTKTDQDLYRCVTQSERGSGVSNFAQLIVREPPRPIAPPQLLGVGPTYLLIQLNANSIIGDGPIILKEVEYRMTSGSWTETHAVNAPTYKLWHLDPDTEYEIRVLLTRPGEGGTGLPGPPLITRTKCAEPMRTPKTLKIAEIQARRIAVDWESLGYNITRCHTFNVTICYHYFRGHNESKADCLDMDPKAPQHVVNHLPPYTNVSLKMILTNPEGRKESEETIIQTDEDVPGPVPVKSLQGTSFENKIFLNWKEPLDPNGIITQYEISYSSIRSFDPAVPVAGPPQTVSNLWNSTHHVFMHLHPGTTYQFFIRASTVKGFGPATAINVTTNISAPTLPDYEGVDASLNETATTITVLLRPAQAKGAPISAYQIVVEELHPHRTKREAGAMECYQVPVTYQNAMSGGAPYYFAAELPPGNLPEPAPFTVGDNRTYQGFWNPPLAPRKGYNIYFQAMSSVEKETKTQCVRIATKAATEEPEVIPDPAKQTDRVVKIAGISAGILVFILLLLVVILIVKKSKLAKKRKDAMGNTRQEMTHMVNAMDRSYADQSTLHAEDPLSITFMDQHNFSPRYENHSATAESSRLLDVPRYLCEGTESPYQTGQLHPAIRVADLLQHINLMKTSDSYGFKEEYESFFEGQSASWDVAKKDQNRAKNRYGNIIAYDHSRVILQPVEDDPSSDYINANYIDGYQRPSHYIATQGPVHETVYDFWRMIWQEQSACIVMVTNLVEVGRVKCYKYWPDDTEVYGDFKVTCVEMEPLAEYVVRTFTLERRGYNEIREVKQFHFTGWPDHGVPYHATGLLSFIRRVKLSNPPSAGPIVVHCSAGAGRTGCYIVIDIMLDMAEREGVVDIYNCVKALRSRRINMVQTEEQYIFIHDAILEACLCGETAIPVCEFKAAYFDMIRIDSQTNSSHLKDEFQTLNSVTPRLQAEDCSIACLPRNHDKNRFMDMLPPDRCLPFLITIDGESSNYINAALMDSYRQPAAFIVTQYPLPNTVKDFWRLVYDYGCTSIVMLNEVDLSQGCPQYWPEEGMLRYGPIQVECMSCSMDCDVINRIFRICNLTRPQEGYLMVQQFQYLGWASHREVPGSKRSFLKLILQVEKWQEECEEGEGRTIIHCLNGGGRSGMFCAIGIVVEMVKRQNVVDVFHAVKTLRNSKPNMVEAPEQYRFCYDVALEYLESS
# UniProt Q8WW01: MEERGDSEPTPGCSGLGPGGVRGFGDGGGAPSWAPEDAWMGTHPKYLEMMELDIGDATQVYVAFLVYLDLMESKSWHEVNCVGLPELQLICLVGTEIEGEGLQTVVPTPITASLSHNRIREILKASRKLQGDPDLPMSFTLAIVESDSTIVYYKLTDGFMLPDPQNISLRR
# ± gives the standard deviation of the averaged measurements. Only a part is listed here, and it is no random draw. Most values lie at the level of the controls, where differences are scatter.
# Compound: Nc1ncnc2c1ncn2[C@@H]1O[C@H](COP(=O)(O)OP(=O)(O)NP(=O)(O)O)[C@@H](O)[C@H]1O [adenylyl imidodiphosphate]
# Experiment: NP40-soluble protein abundance relative to vehicle (solubility fold change) (ratio); higher = more soluble protein in presence of AMP-PNP
# How it was run: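 Jurkat crude lysate (Dounce-homogenised) was treated with eight concentrations from 0.1 to 10 mM for 10 min at room temperature, then 3 min at 37 °C. It was solubilised with 0.8% NP40 and benzonase (60 min, 4 °C) and ultracentrifuged, and the supernatant was TMT-labelled for LC-MS/MS. Intensities were vsn-normalised, and the value is the fold change against the NP40-processed vehicle per replicate, from three independent experiments.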
Target,NP40-soluble protein abundance (concentration: 0.1mM),NP40-soluble protein abundance (concentration: 0.5mM)
F5GYQ1 and related entries (UniProt P61421),1.04 ± 0.028,0.981 ± 0.084
E9PC47 and related entries (UniProt P53667),1.009 ± 0.0021,0.979 ± 0.025
F8WCF9 and related entries (UniProt Q8N465),1.014 ± 0.0029,1.04 ± 0.036
E9PIV2 and related entries (UniProt P24001),0.9885 ± 0.0019,1.01 ± 0.012
E9PC69 and related entries (UniProt Q7KZI7),1.04 ± 0.049,1.02 ± 0.019
E7ETU5 and related entries (UniProt P29558),0.957 ± 0.018,0.981 ± 0.016
G3V1V0 and related entries (UniProt P60660),1.03 ± 0.062,1.17 ± 0.21
E9PEI0 and related entries (UniProt Q69YH5),0.9663 ± 0.0086,0.9695 ± 0.0053
E9PJE9 and related entries (UniProt P78410),1 ± 0.034,0.983 ± 0.04
F5GXB1 and related entries (UniProt Q9HBH0),1.02 ± 0.028,1.02 ± 0.021
E9PPG8 and related entries (UniProt Q53FT3),0.992 ± 0.025,0.9613 ± 0.0054
E9PLE4 and related entries (UniProt Q9BVG9),1.04 ± 0.016,1.04 ± 0.032
E7EQA9 and related entries (UniProt Q92844),0.968 ± 0.034,0.973 ± 0.02
E7EMB1 and related entries (UniProt Q9UH65),0.97 ± 0.021,1.01 ± 0.04
E9PHH9 and related entries (UniProt Q9BUI4),1.01 ± 0.022,0.999 ± 0.034
F5H4V9 and related entries (UniProt Q16342),0.9655 ± 0.0046,0.988 ± 0.033
E9PGC5 and related entries (UniProt Q15262),0.996 ± 0.014,0.9901 ± 0.0051
E9PPN1 and related entries (UniProt Q8WW01),0.994 ± 0.025,0.985 ± 0.025

# Whole records from above. Values in the order: NP40-soluble protein abundance (concentration: 0.1mM)	NP40-soluble protein abundance (concentration: 0.5mM)
# E9PHH9 and related entries (UniProt Q9BUI4) in the list: 1.01 ± 0.022	0.999 ± 0.034
# E9PPG8 and related entries (UniProt Q53FT3) in the list: 0.992 ± 0.025	0.9613 ± 0.0054
